Measured values taken from the supplement of paper PMC9135407.
Where “and” joins values, the source holds several entries; their conditions need not be identical. Equal entries are not always repeated. Structures can show the parent of a compound that is named as a salt. ± gives the standard deviation of the averaged measurements. This is one part of the list. Baselines shift from plate to plate; read single values as rough.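 Culture-activated primary human stellate myofibroblasts, where regained lipid droplets signal inactivation. Value: share of Hoechst-counted cells above a per-plate Bodipy cutoff, in duplicate wells, with DMSO negative and nortriptyline positive controls on each plate. Hits: a control-normalized score above the plate's top-tenth-percentile nortriptyline wells, or one of a plate's three best wells. Final well concentrations are not given.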

Tested on: primary human hepatic stellate cells (donor 1)
Assay: percent Bodipy-positive cells; higher = more lipid droplet accumulation
Conditions: 48 h
[1] = library stock concentration: 3.33 mM
[2] = library stock concentration: 10 mM
[3] = library stock concentration: 1 mM
[4] = library stock concentration: 400 uM
[5] = library stock concentration: 2 mM
[6] = library stock concentration: 80 uM

## CC(C)C[C@H](NC(=O)CNC(=O)c1cc(Cl)ccc1Cl)B(O)O
[1]
  percent Bodipy-positive cells: 65.3 ± 13%
[2]
  percent Bodipy-positive cells: 76 ± 2.1%

## CCCCC[C@H](O)/C=C/[C@H]1C=CC(=O)[C@@H]1C/C=C\CCCC(=O)O [Prostaglandin A2]
[3]
  percent Bodipy-positive cells: 12.7% and 15.2%

## O=C1NC(=O)/C(=C/c2ccc(-c3ccc(F)cc3O)o2)S1
[4]
  percent Bodipy-positive cells: 25.6 ± 1.6%
[3]
  percent Bodipy-positive cells: 6.42 ± 0.65%
[5]
  percent Bodipy-positive cells: 43.8 ± 5.1%
[1]
  percent Bodipy-positive cells: 20.2 ± 3.2%

## CC(C)CCN1c2nc(Nc3cc(F)c(O)c(F)c3)ncc2N(C)C(=O)C1C (stereo not given)
[6]
  percent Bodipy-positive cells: 9.15 ± 4.9%
[4]
  percent Bodipy-positive cells: 7.84% and 10.3%
[5]
  percent Bodipy-positive cells: 4.18% and 6.71%
[1]
  percent Bodipy-positive cells: 4.2 ± 1.6%

## Cc1cnc(Nc2ccc(N3CCN(C)CC3)cc2)nc1Nc1cccc(S(=O)(=O)NC(C)(C)C)c1
[1]
  percent Bodipy-positive cells: 68.9 ± 9.8%
[2]
  percent Bodipy-positive cells: 98.483 ± 0.064%

## OC[C@@H](O)[C@@H](O)CO
[2]
  percent Bodipy-positive cells: 28.3 ± 1.3%

## CCCn1c(=O)c2[nH]c(-c3ccccc3)nc2n(CCC)c1=O [1,3-Dipropyl-8-phenylxanthine]
[2]
  percent Bodipy-positive cells: 6.98 ± 1.6%

## O=C(Nc1cc(C(F)(F)F)cc(C(F)(F)F)c1)c1cc(Cl)ccc1O
[2]
  percent Bodipy-positive cells: 99.11 ± 0.69%

## NS(=O)(=O)c1cc2c(cc1Cl)N=C(CSCc1ccccc1)NS2(=O)=O [Benzthiazide]
  percent Bodipy-positive cells: 9.03 ± 1.3%
[2]
  percent Bodipy-positive cells: 11.8 ± 1.6%

## NCCCn1cc(C2=C(c3c[nH]c4ccccc34)C(=O)NC2=O)c2ccccc21 [Bisindolylmaleimide III, Hydrochloride]
[1]
  percent Bodipy-positive cells: 6.59 ± 1.3%

## Clc1ccc2c(c1)N=C(N1CCNCC1)c1ccccc1N2 [N-Desmethylclozapine]
[2]
  percent Bodipy-positive cells: 52.7 ± 4.1%

## CC(=O)OC/C=C(C)/C=C/C=C(C)/C=C/C1=C(C)CCCC1(C)C [Vitamin a (acetate)]
Library stock concentration: 6.1 mM
  percent Bodipy-positive cells: 7.99 ± 0.52%

## CC(=O)OC/C=C(C)/C=C/C=C(C)/C=C/C1=C(C)CCCC1(C)C [Retinyl acetate]
[2]
  percent Bodipy-positive cells: 20.8 ± 4.8%

## Cc1ccc(C(=O)Nc2ccc(CN3CCN(C)CC3)c(C(F)(F)F)c2)cc1C#Cc1cnc2cccnn12
[4]
  percent Bodipy-positive cells: 85.51 ± 0.84%
[5]
  percent Bodipy-positive cells: 96.02 ± 0.13%
[2]
  percent Bodipy-positive cells: 97.94 ± 0.47%

## O=C1C(CC[S+]([O-])c2ccccc2)C(=O)N(c2ccccc2)N1c1ccccc1 (stereo not given) [Sulfinpyrazone]
  percent Bodipy-positive cells: 26.5 ± 7%
Library stock concentration: 4.9 mM
  percent Bodipy-positive cells: 11.8 ± 3.5%
[2]
  percent Bodipy-positive cells: 16% and 32.6%

## CCn1c(=O)c(-c2ccc(-c3cncs3)cc2Cl)cc2cnc(Nc3ccc(N4CCN(C)CC4)cc3)nc21
[6]
  percent Bodipy-positive cells: 5.5 ± 0.5%
[4]
  percent Bodipy-positive cells: 9.12 ± 0.63%
[5]
  percent Bodipy-positive cells: 5.71 ± 1.8%
[2]
  percent Bodipy-positive cells: 11.3 ± 6.6%

## COc1ccc(CCN(C)CCc2ccc(OC)c(OC)c2)cc1OC [YS-035 hydrochloride]
[2]
  percent Bodipy-positive cells: 34.8% and 17.6%

## CC(=O)O[C@]1(C(C)=O)CC[C@H]2[C@@H]3C=C(C)C4=CC(=O)CC[C@@H]4[C@H]3CC[C@@]21C [Nomegestrol acetate]
  percent Bodipy-positive cells: 11.6 ± 0.69%

## CC[N+](CC)(CC)CC [Tetraethylammonium chloride]
[2]
  percent Bodipy-positive cells: 10.3 ± 2.5%

## NC(=O)c1noc([C@H](CCCC2CCCCC2)CC(=O)NO)n1
[1]
  percent Bodipy-positive cells: 7.92 ± 2.8%
[2]
  percent Bodipy-positive cells: 13.4 ± 6.9%

## CC1(CN2CCC(n3c(=O)[nH]c4ccccc43)CC2)OCc2ccccc2-n2cccc21 (stereo not given)
[2]
  percent Bodipy-positive cells: 11.3 ± 0.34%

## COc1ccc2c(c1)c(CC(=O)Oc1ccc(-c3cc(=S)ss3)cc1)c(C)n2C(=O)c1ccc(Cl)cc1
[3]
  percent Bodipy-positive cells: 14.1 ± 6.6%

## CC(C)Oc1cccc(-n2c(CCc3c[nH]c4ccc(Br)cc34)nc3ccccc3c2=O)c1
[2]
  percent Bodipy-positive cells: 4.36 ± 3.4%

## Cc1cccc(-c2[nH]c(C(C)(C)C)nc2-c2ccc3nccnc3c2)n1
[6]
  percent Bodipy-positive cells: 20.1 ± 1.6%
[4]
  percent Bodipy-positive cells: 27.6 ± 26%
[5]
  percent Bodipy-positive cells: 17.7 ± 4.6%
[1]
  percent Bodipy-positive cells: 8.71 ± 3.6%

## Cc1ccccc1/C=C/C1=NCCN1 [Metrazoline oxalate]
[2]
  percent Bodipy-positive cells: 61.4 ± 3.9%

## O=C(Nc1ccc(-c2cn[nH]c2)cc1)C1COc2ccccc2O1 (stereo not given) [Rho Kinase Inhibitor V]
[1]
  percent Bodipy-positive cells: 16.6 ± 5%

## C[C@@H]1CC(=O)NN=C1c1ccc(NN=C(C#N)C#N)cc1
[2]
  percent Bodipy-positive cells: 23.8 ± 2.4%

## C[C@@H]1CC(=O)NN=C1c1ccc(NN=C(C#N)C#N)cc1 [Levosimendan]
[1]
  percent Bodipy-positive cells: 8.39 ± 6.1%
[2]
  percent Bodipy-positive cells: 13.8 ± 5.7%

## COc1ccc(CNC(=O)Nc2ncc([N+](=O)[O-])s2)cc1
[2]
  percent Bodipy-positive cells: 95.15 ± 0.79%

## CCCCC/C=C\C/C=C\C/C=C\CCCCCCC(=O)OCC [Dihomo-.gamma.-Linolenic Acid ethyl ester]
[3]
  percent Bodipy-positive cells: 7.31 ± 0.075%

## COc1ccc(-c2nc(C(=O)N3CCN(C)CC3)sc2-c2ccc(OC)cc2)cc1
[3]
  percent Bodipy-positive cells: 16.2 ± 6.4%
[2]
  percent Bodipy-positive cells: 45.1 ± 1.8%

## Cc1c(NC(=O)c2ccc(C(C)(C)C)cc2)cccc1-c1cn(C)c(=O)c(Nc2ccc(C(=O)N3CCOCC3)cc2)n1
[1]
  percent Bodipy-positive cells: 9.18 ± 1.9%
[2]
  percent Bodipy-positive cells: 26.5 ± 8.6%

## O=C(O)Cc1ccccc1Nc1c(Cl)cccc1Cl
[2]
  percent Bodipy-positive cells: 7.54 ± 3.3%

## O=C(O)Cc1ccccc1Nc1c(Cl)cccc1Cl [Diclofenac sodium]
  percent Bodipy-positive cells: 34.7 ± 3%
Library stock concentration: 6.3 mM
  percent Bodipy-positive cells: 2.22 ± 0.81%

## O=C(O)Cc1ccccc1Nc1c(Cl)cccc1Cl [Diclofenac (sodium salt)]
[3]
  percent Bodipy-positive cells: 11.6 ± 0.67%

## O=C(O)Cc1ccccc1Nc1c(Cl)cccc1Cl [Diclofenac Sodium]
[1]
  percent Bodipy-positive cells: 19.1 ± 14%
[2]
  percent Bodipy-positive cells: 13.5 ± 0.28%

## O=C(O)Cc1ccccc1Nc1c(Cl)cccc1Cl [Diclofenac Diethylamine]
[1]
  percent Bodipy-positive cells: 8.52 ± 1.4%
[2]
  percent Bodipy-positive cells: 30.7 ± 27%

## O=C(O)Cc1ccccc1Nc1c(Cl)cccc1Cl [Diclofenac Potassium]
[1]
  percent Bodipy-positive cells: 6.49 ± 4.2%
[2]
  percent Bodipy-positive cells: 12.5 ± 4.9%
